According to the supplement of paper PMC12823440, “Inhibitors supercharge kinase turnover through native proteolytic circuits” (Nature, 2025):
This is one part of the list. Hit calls seldom repeat between salt and free forms of one compound.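 Kinases, fused to nanoluciferase, were expressed in K562 cells; luminescence was measured every 4 h from 2 to 18 h as percent of control (DMSO = 100%, positive control = 0%). A time point is decreased if signal falls significantly (2 sigma). Hits were called by the authors by a rule that is not shown; the count of time points alone does not decide it.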

Protein sequences, listed by entry. Tags and fused reporters are not part of them. Lines headed by an entry give the natural chain unless they say otherwise; changes in a name come on top.
UniProt Q9Y616: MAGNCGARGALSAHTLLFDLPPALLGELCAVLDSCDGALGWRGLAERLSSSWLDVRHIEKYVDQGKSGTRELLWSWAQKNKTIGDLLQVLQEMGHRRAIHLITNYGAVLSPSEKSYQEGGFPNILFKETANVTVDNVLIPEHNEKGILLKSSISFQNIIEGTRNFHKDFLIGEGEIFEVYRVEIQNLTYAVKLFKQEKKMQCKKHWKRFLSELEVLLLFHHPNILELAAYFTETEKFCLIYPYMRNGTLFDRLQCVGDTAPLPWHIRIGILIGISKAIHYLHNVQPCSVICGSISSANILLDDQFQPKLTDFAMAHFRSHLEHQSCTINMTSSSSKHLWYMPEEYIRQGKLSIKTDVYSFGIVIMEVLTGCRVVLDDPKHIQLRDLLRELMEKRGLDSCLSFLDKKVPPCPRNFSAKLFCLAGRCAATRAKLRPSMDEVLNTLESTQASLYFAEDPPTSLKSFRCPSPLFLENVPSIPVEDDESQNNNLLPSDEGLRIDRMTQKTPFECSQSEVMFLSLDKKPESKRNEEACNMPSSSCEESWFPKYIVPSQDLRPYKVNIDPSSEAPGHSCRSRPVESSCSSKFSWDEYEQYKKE
UniProt P23458: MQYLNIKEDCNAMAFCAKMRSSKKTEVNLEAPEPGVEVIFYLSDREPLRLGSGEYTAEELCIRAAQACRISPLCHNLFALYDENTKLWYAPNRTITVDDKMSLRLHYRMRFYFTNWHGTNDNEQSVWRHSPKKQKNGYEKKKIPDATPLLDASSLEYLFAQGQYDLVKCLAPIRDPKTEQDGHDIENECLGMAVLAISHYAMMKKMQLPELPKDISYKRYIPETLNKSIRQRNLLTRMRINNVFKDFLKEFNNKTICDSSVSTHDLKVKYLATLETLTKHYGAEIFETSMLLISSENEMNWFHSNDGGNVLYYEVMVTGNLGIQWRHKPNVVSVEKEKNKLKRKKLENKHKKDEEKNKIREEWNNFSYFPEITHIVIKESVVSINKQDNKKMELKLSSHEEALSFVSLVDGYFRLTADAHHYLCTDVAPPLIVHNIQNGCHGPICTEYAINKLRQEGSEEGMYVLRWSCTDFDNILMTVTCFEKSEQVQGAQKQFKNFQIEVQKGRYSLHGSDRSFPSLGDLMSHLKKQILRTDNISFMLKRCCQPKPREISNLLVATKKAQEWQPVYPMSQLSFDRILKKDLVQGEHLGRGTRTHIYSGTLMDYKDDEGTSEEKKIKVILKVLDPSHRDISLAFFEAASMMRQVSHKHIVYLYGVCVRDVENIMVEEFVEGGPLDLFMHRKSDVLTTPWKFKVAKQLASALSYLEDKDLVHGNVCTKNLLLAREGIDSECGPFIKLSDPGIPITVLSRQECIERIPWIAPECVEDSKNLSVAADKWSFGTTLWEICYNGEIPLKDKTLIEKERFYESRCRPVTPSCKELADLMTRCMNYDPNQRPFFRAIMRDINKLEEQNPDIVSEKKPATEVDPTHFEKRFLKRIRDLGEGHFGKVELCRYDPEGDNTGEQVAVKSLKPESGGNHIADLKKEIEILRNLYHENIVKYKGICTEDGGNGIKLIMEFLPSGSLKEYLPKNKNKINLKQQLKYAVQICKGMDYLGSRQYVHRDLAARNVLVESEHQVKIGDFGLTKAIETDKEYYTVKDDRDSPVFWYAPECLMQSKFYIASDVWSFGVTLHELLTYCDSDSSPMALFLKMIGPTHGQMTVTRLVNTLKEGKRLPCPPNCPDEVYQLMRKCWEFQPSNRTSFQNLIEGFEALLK
UniProt P06239: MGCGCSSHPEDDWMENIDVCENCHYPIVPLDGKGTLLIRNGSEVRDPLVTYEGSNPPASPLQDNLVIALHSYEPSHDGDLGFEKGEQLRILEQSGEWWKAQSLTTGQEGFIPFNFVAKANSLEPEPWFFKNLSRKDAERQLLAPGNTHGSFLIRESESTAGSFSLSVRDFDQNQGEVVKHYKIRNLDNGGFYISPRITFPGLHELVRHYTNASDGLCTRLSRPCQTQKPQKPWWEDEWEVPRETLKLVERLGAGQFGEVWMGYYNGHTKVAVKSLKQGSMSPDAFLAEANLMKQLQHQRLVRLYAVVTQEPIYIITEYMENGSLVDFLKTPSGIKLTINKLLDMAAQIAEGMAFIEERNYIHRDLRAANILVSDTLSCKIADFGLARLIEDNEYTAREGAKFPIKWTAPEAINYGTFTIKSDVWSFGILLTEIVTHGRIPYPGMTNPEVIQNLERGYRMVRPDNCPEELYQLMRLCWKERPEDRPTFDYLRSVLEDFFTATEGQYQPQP
UniProt P53667: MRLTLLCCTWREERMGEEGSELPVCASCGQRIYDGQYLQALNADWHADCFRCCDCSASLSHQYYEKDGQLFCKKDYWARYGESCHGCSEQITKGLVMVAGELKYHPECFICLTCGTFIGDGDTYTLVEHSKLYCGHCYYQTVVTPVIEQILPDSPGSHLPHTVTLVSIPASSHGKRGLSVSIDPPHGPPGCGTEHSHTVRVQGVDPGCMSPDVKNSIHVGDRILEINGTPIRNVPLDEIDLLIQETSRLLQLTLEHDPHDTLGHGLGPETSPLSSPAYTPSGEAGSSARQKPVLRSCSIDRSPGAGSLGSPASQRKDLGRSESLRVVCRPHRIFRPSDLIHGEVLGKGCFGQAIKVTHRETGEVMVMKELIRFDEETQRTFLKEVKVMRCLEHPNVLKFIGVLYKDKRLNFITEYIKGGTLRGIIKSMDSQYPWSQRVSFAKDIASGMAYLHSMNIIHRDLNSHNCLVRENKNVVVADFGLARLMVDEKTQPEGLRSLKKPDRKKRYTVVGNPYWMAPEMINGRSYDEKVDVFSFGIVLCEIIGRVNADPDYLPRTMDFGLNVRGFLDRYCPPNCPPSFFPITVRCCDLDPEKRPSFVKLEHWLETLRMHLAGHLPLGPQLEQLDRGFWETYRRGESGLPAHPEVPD
UniProt P53671: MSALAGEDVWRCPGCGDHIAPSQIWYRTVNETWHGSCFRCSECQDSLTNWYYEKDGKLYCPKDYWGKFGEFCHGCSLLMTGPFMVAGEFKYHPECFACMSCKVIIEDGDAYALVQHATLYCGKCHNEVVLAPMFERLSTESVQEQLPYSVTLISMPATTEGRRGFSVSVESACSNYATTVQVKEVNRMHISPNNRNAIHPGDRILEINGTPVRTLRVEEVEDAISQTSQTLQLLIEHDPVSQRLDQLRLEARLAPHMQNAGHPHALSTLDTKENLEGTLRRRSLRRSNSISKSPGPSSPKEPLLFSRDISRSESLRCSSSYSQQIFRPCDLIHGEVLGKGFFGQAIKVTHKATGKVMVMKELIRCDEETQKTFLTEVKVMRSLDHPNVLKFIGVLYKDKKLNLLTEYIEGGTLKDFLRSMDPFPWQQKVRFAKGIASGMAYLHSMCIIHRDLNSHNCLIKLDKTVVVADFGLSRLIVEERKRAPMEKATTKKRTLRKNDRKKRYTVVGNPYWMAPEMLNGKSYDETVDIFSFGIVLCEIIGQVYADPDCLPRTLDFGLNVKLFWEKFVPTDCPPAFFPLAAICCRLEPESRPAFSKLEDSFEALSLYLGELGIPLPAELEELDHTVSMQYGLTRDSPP
UniProt Q8IWU2: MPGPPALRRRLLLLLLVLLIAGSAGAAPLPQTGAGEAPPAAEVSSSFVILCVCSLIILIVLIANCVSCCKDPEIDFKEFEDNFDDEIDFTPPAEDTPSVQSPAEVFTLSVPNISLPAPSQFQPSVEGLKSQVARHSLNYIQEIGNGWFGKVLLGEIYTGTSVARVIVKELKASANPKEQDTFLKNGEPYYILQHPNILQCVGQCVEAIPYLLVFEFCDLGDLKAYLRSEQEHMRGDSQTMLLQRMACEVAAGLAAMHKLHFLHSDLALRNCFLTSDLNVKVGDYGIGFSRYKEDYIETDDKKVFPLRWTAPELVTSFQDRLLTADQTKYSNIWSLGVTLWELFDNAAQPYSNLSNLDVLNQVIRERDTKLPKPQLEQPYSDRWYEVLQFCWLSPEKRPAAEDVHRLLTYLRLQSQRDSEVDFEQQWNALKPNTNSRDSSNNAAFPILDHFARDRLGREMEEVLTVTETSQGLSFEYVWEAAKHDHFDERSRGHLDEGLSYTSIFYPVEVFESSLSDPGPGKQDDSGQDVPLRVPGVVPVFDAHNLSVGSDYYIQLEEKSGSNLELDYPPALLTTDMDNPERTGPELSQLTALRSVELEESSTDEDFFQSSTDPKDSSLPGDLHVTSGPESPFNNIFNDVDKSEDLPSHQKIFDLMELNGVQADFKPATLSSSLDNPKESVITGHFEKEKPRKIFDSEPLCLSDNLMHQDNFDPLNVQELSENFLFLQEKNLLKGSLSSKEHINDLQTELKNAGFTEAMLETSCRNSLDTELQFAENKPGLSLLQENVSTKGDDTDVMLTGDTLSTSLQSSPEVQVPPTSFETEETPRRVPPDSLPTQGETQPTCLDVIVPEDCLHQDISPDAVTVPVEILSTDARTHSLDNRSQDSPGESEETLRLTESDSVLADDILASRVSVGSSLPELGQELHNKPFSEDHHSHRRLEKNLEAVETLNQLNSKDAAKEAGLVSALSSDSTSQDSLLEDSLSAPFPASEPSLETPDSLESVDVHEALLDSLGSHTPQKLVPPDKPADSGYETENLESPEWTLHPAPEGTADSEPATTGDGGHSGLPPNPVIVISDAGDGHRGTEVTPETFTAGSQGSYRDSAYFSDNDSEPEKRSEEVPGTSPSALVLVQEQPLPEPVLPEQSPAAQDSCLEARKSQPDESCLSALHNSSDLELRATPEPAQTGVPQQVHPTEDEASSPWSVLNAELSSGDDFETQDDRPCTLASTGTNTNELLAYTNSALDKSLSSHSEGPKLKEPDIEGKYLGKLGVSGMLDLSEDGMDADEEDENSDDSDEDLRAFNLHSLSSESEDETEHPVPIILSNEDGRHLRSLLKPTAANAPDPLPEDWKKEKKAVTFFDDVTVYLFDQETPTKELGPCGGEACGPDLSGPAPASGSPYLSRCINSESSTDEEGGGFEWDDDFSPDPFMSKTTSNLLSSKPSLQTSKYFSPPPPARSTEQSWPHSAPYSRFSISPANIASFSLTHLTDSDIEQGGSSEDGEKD
UniProt P07948: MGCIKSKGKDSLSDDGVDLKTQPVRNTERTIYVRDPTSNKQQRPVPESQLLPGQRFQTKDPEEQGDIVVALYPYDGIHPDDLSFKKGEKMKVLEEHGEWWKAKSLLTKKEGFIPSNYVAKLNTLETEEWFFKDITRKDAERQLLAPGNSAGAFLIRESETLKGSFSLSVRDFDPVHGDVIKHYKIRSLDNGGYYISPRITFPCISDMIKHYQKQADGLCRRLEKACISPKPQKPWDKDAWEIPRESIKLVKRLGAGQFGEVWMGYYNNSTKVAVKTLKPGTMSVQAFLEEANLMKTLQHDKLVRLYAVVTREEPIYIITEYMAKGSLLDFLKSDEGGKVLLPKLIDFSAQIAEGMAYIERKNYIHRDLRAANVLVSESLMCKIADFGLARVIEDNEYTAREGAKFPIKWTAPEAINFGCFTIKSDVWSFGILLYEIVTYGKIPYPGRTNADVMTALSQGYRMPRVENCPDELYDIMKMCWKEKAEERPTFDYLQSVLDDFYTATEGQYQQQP
UniProt Q12851: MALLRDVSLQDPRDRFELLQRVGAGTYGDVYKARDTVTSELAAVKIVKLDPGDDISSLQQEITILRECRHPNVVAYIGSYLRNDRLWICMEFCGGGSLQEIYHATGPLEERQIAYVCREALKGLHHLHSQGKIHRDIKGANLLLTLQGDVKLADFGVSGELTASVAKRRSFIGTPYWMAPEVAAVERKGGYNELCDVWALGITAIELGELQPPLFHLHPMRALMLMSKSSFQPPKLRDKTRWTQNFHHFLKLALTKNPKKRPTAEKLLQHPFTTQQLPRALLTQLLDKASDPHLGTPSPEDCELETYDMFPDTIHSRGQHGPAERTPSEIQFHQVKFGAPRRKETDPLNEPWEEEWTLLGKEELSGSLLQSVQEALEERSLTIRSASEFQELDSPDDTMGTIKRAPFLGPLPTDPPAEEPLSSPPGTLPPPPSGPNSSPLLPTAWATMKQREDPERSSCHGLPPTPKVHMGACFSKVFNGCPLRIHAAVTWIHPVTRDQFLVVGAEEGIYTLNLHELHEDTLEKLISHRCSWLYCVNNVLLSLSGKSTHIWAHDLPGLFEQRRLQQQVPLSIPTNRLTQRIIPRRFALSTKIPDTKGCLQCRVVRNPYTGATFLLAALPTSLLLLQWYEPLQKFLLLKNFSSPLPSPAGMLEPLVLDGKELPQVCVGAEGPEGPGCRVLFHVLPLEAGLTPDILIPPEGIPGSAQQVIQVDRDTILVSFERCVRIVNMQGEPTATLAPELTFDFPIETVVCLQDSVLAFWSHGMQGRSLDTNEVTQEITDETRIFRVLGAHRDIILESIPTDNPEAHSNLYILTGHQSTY

What was measured:
Test in all cases: kinase-Nluc reporter destabilization hit call (1 = scored as downregulated) (binary); higher = compound decreases kinase abundance
Conditions in all cases: K562; 2-18 h
IRAK3 = IRAK3 (UniProt Q9Y616)
JAK1 = JAK1 (UniProt P23458)
LCK = LCK (UniProt P06239)
LIMK1 = LIMK1 (UniProt P53667)
LIMK2 = LIMK2 (UniProt P53671)
LMTK2 = LMTK2 (UniProt Q8IWU2)
LYN = LYN (UniProt P07948)
MAP2K1 = MAP2K1 (UniProt Q02750)
MAP2K2 = MAP2K2 (UniProt P36507)
MAP4K2 = MAP4K2 (UniProt Q12851)

Measured: kinase-Nluc reporter destabilization hit call

Cc1ccc(NC(=S)NNc2c([N+](=O)[O-])cc(C(F)(F)F)cc2[N+](=O)[O-])cc1Cl (10 µM)
inactive: IRAK3 = 0 | JAK1 = 0 | LCK 0 | LIMK1 = 0 | LIMK2 = 0 | LMTK2 = 0 | LYN 0 | MAP2K1 = 0 | MAP2K2 = 0 | MAP4K2 = 0

COc1ccc2c(c1O)OC(C)(C)c1c-2ccc2c1C(=O)N(c1ccc(C(=O)c3ccccc3)cc1)C2=O [Ampkinone] (10 µM)
inactive: IRAK3 = 0 | JAK1 = 0 | LCK 0 | LIMK1 = 0 | LIMK2 = 0 | LMTK2 = 0 | LYN 0 | MAP2K1 = 0 | MAP2K2 = 0 | MAP4K2 = 0

CC1=C2C(=O)O[C@@H](c3ccoc3)[C@]2(C)CCC1 [Fraxinellone] (10 µM)
inactive: IRAK3 = 0 | JAK1 = 0 | LCK 0 | LIMK1 = 0 | LIMK2 = 0 | LMTK2 = 0 | LYN 0 | MAP2K1 = 0 | MAP2K2 = 0 | MAP4K2 = 0

Cc1cc(Nc2cc(Cl)nc(Oc3ccc([N+](=O)[O-])cc3)n2)n[nH]1 [Autophinib] (2.5 µM)
inactive: IRAK3 = 0 | JAK1 = 0 | LCK 0 | LIMK1 = 0 | LIMK2 = 0 | LMTK2 = 0 | LYN 0 | MAP2K1 = 0 | MAP2K2 = 0 | MAP4K2 = 0

CCN(CC)S(=O)(=O)c1ccc(OC)c(N2CCN(C(=O)c3ccc(F)cc3C(F)(F)F)CC2)c1 (10 µM)
inactive: IRAK3 = 0 | JAK1 = 0 | LCK 0 | LIMK1 = 0 | LIMK2 = 0 | LMTK2 = 0 | LYN 0 | MAP2K1 = 0 | MAP2K2 = 0 | MAP4K2 = 0

COc1c(NC(=O)C(=O)c2ccc(OCCN3CCOCC3)c3ccccc23)cc(C(C)(C)C)cc1NS(C)(=O)=O (2.5 µM)
inactive: IRAK3 = 0 | JAK1 = 0 | LCK 0 | LIMK1 = 0 | LIMK2 = 0 | LMTK2 = 0 | LYN 0 | MAP2K1 = 0 | MAP2K2 = 0 | MAP4K2 = 0

COc1cc(S(C)(=O)=O)ccc1Nc1nc2ccc(-c3ccc(NC(=O)[C@H](C)c4ccc(F)cc4)cc3)cn2n1 [Empesertib] (10 µM)
inactive: IRAK3 = 0 | JAK1 = 0 | LCK 0 | LIMK1 = 0 | LIMK2 = 0 | LMTK2 = 0 | LYN 0 | MAP2K1 = 0 | MAP2K2 = 0 | MAP4K2 = 0

Cc1ccc(-c2c(C(=O)CCl)n(CCCO)c3ncnc(N)c23)cc1 (10 µM)
inactive: IRAK3 = 0 | JAK1 = 0 | LCK 0 | LIMK1 = 0 | LIMK2 = 0 | LMTK2 = 0 | LYN 0 | MAP2K1 = 0 | MAP2K2 = 0 | MAP4K2 = 0

NC1(Cc2ccc(Cl)cc2)CCN(c2ncnc3[nH]ccc23)CC1 (10 µM)
inactive: IRAK3 = 0 | JAK1 = 0 | LCK 0 | LIMK1 = 0 | LIMK2 = 0 | LMTK2 = 0 | LYN 0 | MAP2K1 = 0 | MAP2K2 = 0 | MAP4K2 = 0

Cc1cc(-c2cc(OC(=O)c3ccccc3)ccc2Cl)cc2nnc(Nc3ccc(OCCN4CCCC4)cc3)nc12 (0.5 µM)
inactive: IRAK3 = 0 | JAK1 = 0 | LCK 0 | LIMK1 = 0 | LIMK2 = 0 | LMTK2 = 0 | LYN 0 | MAP2K1 = 0 | MAP2K2 = 0 | MAP4K2 = 0

Sorted by length of the SMILES (smallest number first): part of the list above
NC1(Cc2ccc(Cl)cc2)CCN(c2ncnc3[nH]ccc23)CC1 (10 µM)
inactive: IRAK3 = 0 | JAK1 = 0 | LCK 0 | LIMK1 = 0 | LIMK2 = 0 | LMTK2 = 0 | LYN 0 | MAP2K1 = 0 | MAP2K2 = 0 | MAP4K2 = 0

Cc1ccc(-c2c(C(=O)CCl)n(CCCO)c3ncnc(N)c23)cc1 (10 µM)
inactive: IRAK3 = 0 | JAK1 = 0 | LCK 0 | LIMK1 = 0 | LIMK2 = 0 | LMTK2 = 0 | LYN 0 | MAP2K1 = 0 | MAP2K2 = 0 | MAP4K2 = 0

Cc1cc(Nc2cc(Cl)nc(Oc3ccc([N+](=O)[O-])cc3)n2)n[nH]1 [Autophinib] (2.5 µM)
inactive: IRAK3 = 0 | JAK1 = 0 | LCK 0 | LIMK1 = 0 | LIMK2 = 0 | LMTK2 = 0 | LYN 0 | MAP2K1 = 0 | MAP2K2 = 0 | MAP4K2 = 0

CCN(CC)S(=O)(=O)c1ccc(OC)c(N2CCN(C(=O)c3ccc(F)cc3C(F)(F)F)CC2)c1 (10 µM)
inactive: IRAK3 = 0 | JAK1 = 0 | LCK 0 | LIMK1 = 0 | LIMK2 = 0 | LMTK2 = 0 | LYN 0 | MAP2K1 = 0 | MAP2K2 = 0 | MAP4K2 = 0

Cc1ccc(NC(=S)NNc2c([N+](=O)[O-])cc(C(F)(F)F)cc2[N+](=O)[O-])cc1Cl (10 µM)
inactive: IRAK3 = 0 | JAK1 = 0 | LCK 0 | LIMK1 = 0 | LIMK2 = 0 | LMTK2 = 0 | LYN 0 | MAP2K1 = 0 | MAP2K2 = 0 | MAP4K2 = 0

Cc1cc(-c2cc(OC(=O)c3ccccc3)ccc2Cl)cc2nnc(Nc3ccc(OCCN4CCCC4)cc3)nc12 (0.5 µM)
inactive: IRAK3 = 0 | JAK1 = 0 | LCK 0 | LIMK1 = 0 | LIMK2 = 0 | LMTK2 = 0 | LYN 0 | MAP2K1 = 0 | MAP2K2 = 0 | MAP4K2 = 0

COc1ccc2c(c1O)OC(C)(C)c1c-2ccc2c1C(=O)N(c1ccc(C(=O)c3ccccc3)cc1)C2=O [Ampkinone] (10 µM)
inactive: IRAK3 = 0 | JAK1 = 0 | LCK 0 | LIMK1 = 0 | LIMK2 = 0 | LMTK2 = 0 | LYN 0 | MAP2K1 = 0 | MAP2K2 = 0 | MAP4K2 = 0

COc1c(NC(=O)C(=O)c2ccc(OCCN3CCOCC3)c3ccccc23)cc(C(C)(C)C)cc1NS(C)(=O)=O (2.5 µM)
inactive: IRAK3 = 0 | JAK1 = 0 | LCK 0 | LIMK1 = 0 | LIMK2 = 0 | LMTK2 = 0 | LYN 0 | MAP2K1 = 0 | MAP2K2 = 0 | MAP4K2 = 0

COc1cc(S(C)(=O)=O)ccc1Nc1nc2ccc(-c3ccc(NC(=O)[C@H](C)c4ccc(F)cc4)cc3)cn2n1 [Empesertib] (10 µM)
inactive: IRAK3 = 0 | JAK1 = 0 | LCK 0 | LIMK1 = 0 | LIMK2 = 0 | LMTK2 = 0 | LYN 0 | MAP2K1 = 0 | MAP2K2 = 0 | MAP4K2 = 0

Next compounds

CC(=O)N1CCN(c2cc(-c3cc(C(F)(F)F)c4c(N)ncnn34)ccc2C#N)C(=O)C1(C)C (10 µM)
inactive: IRAK3 = 0 | JAK1 = 0 | LCK 0 | LIMK1 = 0 | LIMK2 = 0 | LMTK2 = 0 | LYN 0 | MAP2K1 = 0 | MAP2K2 = 0 | MAP4K2 = 0

Cn1cc(Nc2nccc(N3C[C@H]4CC[C@@H](C3)N4C(=O)[C@@H]3CC3(F)F)n2)cn1 (10 µM)
inactive: IRAK3 = 0 | JAK1 = 0 | LCK 0 | LIMK1 = 0 | LIMK2 = 0 | LMTK2 = 0 | LYN 0 | MAP2K1 = 0 | MAP2K2 = 0 | MAP4K2 = 0

OCCNC1CCCc2c1[nH]c1ccc(-c3ccccc3)cc21 (stereo not given) (2.5 µM)
inactive: IRAK3 = 0 | JAK1 = 0 | LCK 0 | LIMK1 = 0 | LMTK2 = 0 | LYN 0 | MAP2K1 = 0 | MAP2K2 = 0 | MAP4K2 = 0
active: LIMK2 = 1

Cn1nccc1Nc1nccc(-c2cc3c(s2)C(C)(C)N(CCN2CCOCC2)C3=O)n1 (10 µM)
inactive: IRAK3 = 0 | JAK1 = 0 | LCK 0 | LIMK1 = 0 | LIMK2 = 0 | LMTK2 = 0 | LYN 0 | MAP2K1 = 0 | MAP2K2 = 0 | MAP4K2 = 0

O=C(Nc1ccc(F)cc1F)[C@H](NC(=S)Nc1cc(C(F)(F)F)cc(C(F)(F)F)c1)c1ccccc1 (2.5 µM)
inactive: IRAK3 = 0 | JAK1 = 0 | LCK 0 | LIMK1 = 0 | LIMK2 = 0 | LMTK2 = 0 | LYN 0 | MAP2K1 = 0 | MAP2K2 = 0 | MAP4K2 = 0

Cc1c(CN2CCN(S(C)(=O)=O)CC2)sc2c(N3CCOCC3)nc(-c3cnc(N)nc3)nc12 (2.5 µM)
inactive: IRAK3 = 0 | JAK1 = 0 | LCK 0 | LIMK1 = 0 | LIMK2 = 0 | LMTK2 = 0 | LYN 0 | MAP2K1 = 0 | MAP2K2 = 0 | MAP4K2 = 0

Cc1c(CN2CCN(C(=O)[C@H](C)O)CC2)sc2c(N3CCOCC3)nc(-c3cnc(N)nc3)nc12 [Apitolisib] (10 µM)
inactive: IRAK3 = 0 | JAK1 = 0 | LCK 0 | LIMK1 = 0 | LIMK2 = 0 | LMTK2 = 0 | LYN 0 | MAP2K1 = 0 | MAP2K2 = 0 | MAP4K2 = 0

O=C(Nc1nc2ccccc2[nH]1)c1cccc(-n2cccc2)c1 (10 µM)
inactive: IRAK3 = 0 | JAK1 = 0 | LCK 0 | LIMK1 = 0 | LIMK2 = 0 | LMTK2 = 0 | LYN 0 | MAP2K1 = 0 | MAP2K2 = 0 | MAP4K2 = 0

CN1CCN(c2ccc(Nc3ncc4nc(Nc5ccccc5)n([C@@H]5CCN(S(=O)(=O)C6CC6)C5)c4n3)cc2)CC1 (2.5 µM)
inactive: IRAK3 = 0 | JAK1 = 0 | LCK 0 | LIMK1 = 0 | LIMK2 = 0 | LMTK2 = 0 | LYN 0 | MAP2K1 = 0 | MAP2K2 = 0 | MAP4K2 = 0

CN(CC(=O)N(Cc1ccc(C2CCCCC2)cc1)c1ccc(C(=O)O)cc1)S(=O)(=O)c1c(F)c(F)c(F)c(F)c1F (2.5 µM)
inactive: IRAK3 = 0 | JAK1 = 0 | LCK 0 | LIMK1 = 0 | LIMK2 = 0 | LMTK2 = 0 | LYN 0 | MAP2K1 = 0 | MAP2K2 = 0 | MAP4K2 = 0

O=C(Nc1ccc2[nH]nc(-c3ccncc3)c2c1)[C@@H]1CCN(CC(=O)N2CCN(c3ccc(-c4ncccn4)cc3)CC2)C1 (2.5 µM)
inactive: IRAK3 = 0 | JAK1 = 0 | LCK 0 | LIMK1 = 0 | LIMK2 = 0 | LMTK2 = 0 | LYN 0 | MAP2K1 = 0 | MAP2K2 = 0 | MAP4K2 = 0

Cc1ccc(S(=O)(=O)/C=C/C#N)cc1 (10 µM)
inactive: IRAK3 = 0 | JAK1 = 0 | LCK 0 | LIMK1 = 0 | LIMK2 = 0 | LMTK2 = 0 | LYN 0 | MAP2K1 = 0 | MAP2K2 = 0 | MAP4K2 = 0

COCCOc1ccc(-c2cn(-c3ccccc3)c3nc[nH]c(=O)c23)cc1 (10 µM)
inactive: IRAK3 = 0 | JAK1 = 0 | LCK 0 | LIMK1 = 0 | LIMK2 = 0 | LMTK2 = 0 | LYN 0 | MAP2K1 = 0 | MAP2K2 = 0 | MAP4K2 = 0

CC1CCc2nc(N)c(C#N)c(-c3cccnc3)c2C1 (stereo not given) (10 µM)
inactive: IRAK3 = 0 | JAK1 = 0 | LCK 0 | LIMK1 = 0 | LIMK2 = 0 | LMTK2 = 0 | LYN 0 | MAP2K1 = 0 | MAP2K2 = 0 | MAP4K2 = 0

O=C(NCCCNc1nc(Nc2cccc(NC(=O)N3CCCC3)c2)ncc1I)c1cccs1 (2.5 µM)
inactive: IRAK3 = 0 | JAK1 = 0 | LCK 0 | LIMK1 = 0 | LIMK2 = 0 | LMTK2 = 0 | LYN 0 | MAP2K1 = 0 | MAP2K2 = 0 | MAP4K2 = 0

CCn1c(=O)c(-c2ccc(-c3cncs3)cc2Cl)cc2cnc(Nc3ccc(N4CCN(C)CC4)cc3)nc21 (2.5 µM)
inactive: IRAK3 = 0 | JAK1 = 0 | LCK 0 | LIMK1 = 0 | LIMK2 = 0 | LMTK2 = 0 | LYN 0 | MAP2K1 = 0 | MAP2K2 = 0 | MAP4K2 = 0

CC(C)=CC[C@H](O)C1=CC(=O)c2c(O)ccc(O)c2C1=O [(-)-Alkannin] (2.5 µM)
inactive: IRAK3 = 0 | JAK1 = 0 | LCK 0 | LIMK1 = 0 | LIMK2 = 0 | LMTK2 = 0 | LYN 0 | MAP2K1 = 0 | MAP2K2 = 0 | MAP4K2 = 0

OC[C@H]1O[C@@H](Oc2cc3c(O)cc(O)cc3[o+]c2-c2cc(O)c(O)c(O)c2)[C@H](O)[C@@H](O)[C@@H]1O [Delphinidin 3-glucoside (chloride)] (10 µM)
inactive: IRAK3 = 0 | JAK1 = 0 | LCK 0 | LIMK1 = 0 | LIMK2 = 0 | LMTK2 = 0 | LYN 0 | MAP2K1 = 0 | MAP2K2 = 0 | MAP4K2 = 0

C=C(CCC=C(C)C)[C@H]1CC[C@]2(C)[C@@H]1[C@H](O)C[C@@H]1[C@@]3(C)CC[C@H](O[C@@H]4O[C@H](CO)[C@@H](O)[C@H](O)[C@H]4O[C@@H]4O[C@H](CO)[C@@H](O)[C@H](O)[C@H]4O)C(C)(C)[C@@H]3CC[C@]12C [Ginsenoside Rk1] (10 µM)
inactive: IRAK3 = 0 | JAK1 = 0 | LCK 0 | LIMK1 = 0 | LIMK2 = 0 | LMTK2 = 0 | LYN 0 | MAP2K1 = 0 | MAP2K2 = 0 | MAP4K2 = 0
